{"source": "PubChem BioAssay AID493014", "about": "(National Center for Advancing Translational Sciences (NCATS), 2011)", "note": "The whole screen tested about 340,000 compounds, of which about 170 (0.05%) were called active. The inconclusive results got no clear call from the source; some entries with a clear call stand among them for comparison. The call rests on the fitted dose curve; in most records, active means well fitted inhibition curve with a large enough effect in the signal ratio, with a control signal flat (not every such curve was filed as active); inconclusive means small, poorly fitted or top-dose-only effect, or effect the other way, or a change in a side signal; inactive means flat fitted curve, though single readings scatter; the % refers to the signal ratio. Potencies beside an inconclusive call are fits to weak or partial responses and may not hold up. Potency means the concentration at half of the fitted maximal effect.", "data": [{"assay": "qHTS Assay to Find Inhibitors of Chronic Active B-Cell Receptor Signaling;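 on activity change, negative = inhibition: plate controls were basal doxycycline-induced cells for no effect and cells given 10 µM MG132 for full effect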", "conditions": "ABC-DLBCL IkBa-CBG/CBR reporter, luminescence ratio (green luciferase fused to IkBa over red control in TMD8 lymphoma cells), 4 h; activity change, negative = inhibition: at 46.1 µM (top of the series)", "outline": "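TMD8 human ABC-DLBCL cells with doxycycline-inducible IκBα–green luciferase fusion and unfused red luciferase, in 0.5% FBS medium; compounds up to 46 uM, 4 h at 37C. Green/red luminescence ratio, filter-overlap corrected, fitted to concentration-response curves.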", "values": [{"smiles": "O=C1OC(c2ccccc2)=C/C1=C\\N1CCOCC1", "activity change, negative = inhibition": "inactive: -7.68%"}, {"smiles": "COc1cccc(CN2CCCC(C(=O)N3CCCCC3)C2)c1", "note": "(configuration not stated)", "activity change, negative = inhibition": "inconclusive: 6.95%"}, {"smiles": "Cc1nc2nc(COc3ccccc3)[nH]n2c(=O)c1Cl", "Potency": "inconclusive: 5.8 µM [rising, full curve, poor fit]"}, {"smiles": "CCc1ccc(S(=O)(=O)/N=C2\\C=C(Nc3ccc(O)cc3)C(=O)c3ccccc32)cc1", "Potency": "inconclusive: 5.62 µM [falling, single point]"}, {"smiles": "Cc1ccc(C(=O)N/N=C\\c2ccc([N+](=O)[O-])o2)cn1", "activity change, negative = inhibition": "inconclusive: 7%"}, {"smiles": "CCOC(=O)c1cnn2c(N)c(C#N)nnc12", "activity change, negative = inhibition": "inconclusive: -1.2%"}, {"smiles": "Cn1c(=O)c2ncn(CC(=O)Nc3cc(C(F)(F)F)ccc3N3CCOCC3)c2n(C)c1=O", "activity change, negative = inhibition": "inactive: -8.87%"}, {"smiles": "COc1cc(/C=N/NC(=O)c2cc3c(ccc4ccccc43)o2)cc(OC)c1O", "Potency": "inconclusive: 11.2 µM [falling, partial curve]"}, {"smiles": "Nc1ccccc1C(=O)N/N=C1\\C2CN3CCN(C2)CC1(c1ccccc1)C3", "Potency": "inconclusive: 16.4 µM [falling, partial curve]"}, {"smiles": "COc1ccc(Nc2cc(C(=O)NCCCN(C)Cc3ccccc3)c3ccccc3n2)cc1OC", "activity change, negative = inhibition": "inconclusive: 18%"}, {"smiles": "O=C(Nc1ccc(F)cc1)c1oc2ccccc2c1NC(=O)C1CC1", "activity change, negative = inhibition": "inconclusive: 4.51%"}, {"smiles": "N#CC1=C(N)Nc2ncnn2C1c1ccc(F)cc1", "note": "(configuration not stated)", "activity change, negative = inhibition": "inconclusive: -8.17%"}, {"smiles": "CCC(CC)NC(=O)CCCSc1nc2ccccc2[nH]1", "activity change, negative = inhibition": "inactive: 1.1%"}, {"smiles": "COc1ccccc1NC(=O)C(=O)NCCC1CCCCN1S(=O)(=O)c1ccccc1", "note": "(configuration not stated)", "activity change, negative = inhibition": "inconclusive: -15%"}, {"smiles": "CCOC(=O)c1c(NC(=O)CN2CCN(C(=O)c3ccco3)CC2)sc2c1CCCC2", "activity change, negative = inhibition": "inconclusive: 0.0012%"}, {"smiles": "CC1CC(C)CN(C(=O)c2ccc3c(c2NCCO)C(=O)c2ccccc2C3=O)C1", "note": "(configuration not stated)", "Potency": "inconclusive: 6.51 µM [activator, partial curve, poor fit]"}, {"smiles": "COc1cccc(CNC(=O)C(=O)NCC(c2cccs2)S(=O)(=O)c2cccs2)c1", "note": "(configuration not stated)", "activity change, negative = inhibition": "inactive: -23.2%"}, {"smiles": "Cc1nn(Cc2ccccc2)c2sc(C(=O)NCc3cccnc3)cc12", "activity change, negative = inhibition": "inconclusive: -7.66%"}, {"smiles": "CCN(C[C@H]1N[C@@](Cc2ccccc2)(C(=O)OC)[C@H]2C(=O)N(Cc3ccccc3)C(=O)[C@@H]12)C(=O)c1ccc(C)cc1", "activity change, negative = inhibition": "inactive: 1.12%"}, {"smiles": "N#C/C(=C/c1cccc(O)c1)C(=O)NCc1ccc(Cl)cc1", "activity change, negative = inhibition": "inconclusive: -1.47%"}, {"smiles": "CCc1ccc(CNC(=O)c2ccc(OC3CCN(C(C)=O)CC3)c(OC)c2)nc1", "activity change, negative = inhibition": "inactive: -1.33%"}, {"smiles": "CCCCOc1ccc(C(=O)NCC2(c3ccccc3)CCOCC2)cc1", "activity change, negative = inhibition": "inactive: 4.02%"}, {"smiles": "COCCOC(=O)C1=C(C)OC(N)=C(C#N)C1c1ccco1", "note": "(configuration not stated)", "Potency": "inconclusive: 20.6 µM [falling, partial curve, poor fit]"}, {"smiles": "CC(=O)N1CCN(c2ccccc2NC(=O)c2cccc3c(Cl)cccc23)CC1", "activity change, negative = inhibition": "inactive: -0.765%"}, {"smiles": "Cc1cccc(NC(=O)CSc2nnc(-c3ccccc3C)o2)c1", "activity change, negative = inhibition": "inconclusive: 9.85%"}, {"smiles": "Fc1ccccc1Nc1nc2ccccc2o1", "Potency": "inconclusive: 17.8 µM [falling, single point]"}, {"smiles": "CCCOc1ccc(-c2c(C(=O)N/N=C/c3ccncc3)nnn2-c2nonc2N)cc1", "activity change, negative = inhibition": "inconclusive: 1.31%"}, {"smiles": "Cc1cc(C)c2c(=O)n(CC(=O)Nc3ccc(Cl)cc3)sc2n1", "activity change, negative = inhibition": "inconclusive: -7.24%"}, {"smiles": "COc1cccc(/C(C)=N/Nc2ccc(S(=O)(=O)N3CCCCC3)cn2)c1", "activity change, negative = inhibition": "inconclusive: 0.978%"}, {"smiles": "Cc1cc(/C=C(\\C#N)C(=O)NCc2cccs2)c(C)n1-c1ccccc1F", "Potency": "inconclusive: 2.82 µM [falling, full curve, poor fit]"}, {"smiles": "Cc1cccc(C(=O)NC2CCN(CC(=O)Nc3ccccc3Cl)CC2)c1", "activity change, negative = inhibition": "inactive: -17.3%"}, {"smiles": "Cc1cc(Cl)ccc1NC(=S)NCCc1ccc(Cl)cc1", "activity change, negative = inhibition": "inactive: -6.69%"}, {"smiles": "COc1cc(CCC(=O)NCc2ccc(Cl)cc2)cc(OC)c1OC", "activity change, negative = inhibition": "inconclusive: 1.86%"}, {"smiles": "CCOC(=O)c1ccc(NC(=S)Nc2cccc(C)n2)cc1", "activity change, negative = inhibition": "inconclusive: 9.07%"}, {"smiles": "CN(C)c1ccc(C2/C(=C(/O)c3ccc(Br)cc3)C(=O)C(=O)N2C)cc1", "note": "(configuration not stated)", "activity change, negative = inhibition": "inactive: 1%"}, {"smiles": "COc1cccc(/C=N/n2cnc3cc(C)c(C)cc32)c1OC", "activity change, negative = inhibition": "inconclusive: 1.53%"}, {"smiles": "C=C[C@]1(C)C=C2CCC3[C@](C)(CCC[C@@]3(C)C(=O)O)C2CC1", "note": "(some centres not stated)", "Potency": "inconclusive: 32.6 µM [falling, partial curve, poor fit]"}, {"smiles": "O=C(COC(=O)c1cc(Cl)ccc1O)Nc1ccc2c(c1)OCCO2", "Potency": "inconclusive: 20.6 µM [falling, partial curve]"}, {"smiles": "Cc1nc(-c2ccc(NC(=O)c3ccco3)cc2)cs1", "Potency": "inconclusive: 5.62 µM [rising, single point]"}, {"smiles": "C/C(=N\\NC(=O)c1ccc(NS(=O)(=O)c2cccs2)cc1)c1ccc(O)cc1O", "Potency": "inconclusive: 25.1 µM [falling, single point]"}, {"smiles": "Cc1ccc(/C(O)=C2\\C(=O)C(=O)N(CC(C)O)C2c2cccc(F)c2)cc1", "note": "(configuration not stated)", "activity change, negative = inhibition": "inactive: 3.98%"}, {"smiles": "Cc1ccc(NC(=O)CCN2CCN(C/C=C/c3ccccc3)CC2)cc1", "activity change, negative = inhibition": "inconclusive: 3.78%"}, {"smiles": "Cc1cc(N2CCCC2)nc(SCC(=O)c2ccccc2)n1", "activity change, negative = inhibition": "inconclusive: 20.6%"}, {"smiles": "CC1=NN(C(=O)Cc2ccccc2)C(O)(c2ccccc2)C1", "note": "(configuration not stated)", "activity change, negative = inhibition": "inactive: -1.31%"}, {"smiles": "C(#Cc1ccccc1)C[N+]1(CC#Cc2cccc3ccccc23)CCCC1", "activity change, negative = inhibition": "inactive: -0.966%"}, {"smiles": "CC1(C(=O)N2CCC(CC3CC(c4ccc(Cl)cc4)=NO3)(C(=O)NCC3CCCCC3)CC2)CC1", "note": "(configuration not stated)", "Potency": "inconclusive: 1.12 µM [falling, partial curve]"}, {"smiles": "c1ccc(COc2ccc3nocc3c2)cc1", "activity change, negative = inhibition": "inconclusive: -1.39%"}, {"smiles": "CC1(C2CC2)NC(=O)N(CC(=O)Nc2ccc(C(F)(F)F)cc2)C1=O", "note": "(configuration not stated)", "activity change, negative = inhibition": "inactive: -1.09%"}, {"smiles": "CCO/C=C1/C(=O)N(c2ccc(OC)cc2)C(=O)c2ccccc21", "activity change, negative = inhibition": "inactive: 0.839%"}, {"smiles": "COc1ccc(OCCOC(=O)c2[nH]c(C)c(C(C)=O)c2C)cc1", "Potency": "inconclusive: 35.5 µM [falling, single point]"}, {"smiles": "CC(=O)c1ccc(-n2nnnc2SCC(=O)NNC(=O)c2ccco2)cc1", "Potency": "inconclusive: 3.98 µM [falling, single point]"}, {"smiles": "Cc1cc(C)c(C#N)c(Nc2ccccc2)n1", "activity change, negative = inhibition": "inconclusive: -13.9%"}, {"smiles": "O=C(CSc1nnc(-c2ccco2)o1)N1CCOCC1", "activity change, negative = inhibition": "inconclusive: 17.8%"}, {"smiles": "Cn1cc(S(=O)(=O)CC(=O)Nc2ccc3c(c2)OCCO3)c2ccccc21", "Potency": "inconclusive: 14.6 µM [falling, partial curve]"}, {"smiles": "Clc1ccc(-c2noc(/C=C/c3ccccc3)n2)cc1", "activity change, negative = inhibition": "inconclusive: -0.213%"}, {"smiles": "N#CC1(NC(=O)COC(=O)Cn2[nH]c(=O)c3ccccc3c2=O)CCCCC1", "activity change, negative = inhibition": "inactive: 1.87%"}, {"smiles": "CCc1nnc(NS(=O)(=O)c2ccc(NC(=S)NC(=O)/C=C/c3ccc(F)cc3)cc2)s1", "activity change, negative = inhibition": "inactive: -3.15%"}, {"smiles": "O=C(COC(=O)/C=C/c1cccc(Cl)c1)NCc1cccs1", "activity change, negative = inhibition": "inconclusive: 1.48%"}, {"smiles": "COc1ccc2cc(CCNC(=O)c3cccc([N+](=O)[O-])c3)c(=O)[nH]c2c1", "activity change, negative = inhibition": "inconclusive: -24.8%"}, {"smiles": "CC1CCN(CCCNC(=O)c2ccc3c(=O)n(Cc4ccc(Cl)cc4)c(=S)[nH]c3c2)CC1", "activity change, negative = inhibition": "inactive: -20.2%"}, {"smiles": "Cc1nc(C(=O)Nc2ccccc2)sc1C(=O)Nc1ccccc1", "Potency": "inconclusive: 22.4 µM [falling, partial curve]"}, {"smiles": "O=C(CCc1ccccc1)Nc1ccc(F)c([N+](=O)[O-])c1", "activity change, negative = inhibition": "inactive: 9.75%"}, {"smiles": "O=C(COC(=O)c1cc(=O)c2ccccc2o1)NCc1ccccc1", "activity change, negative = inhibition": "inconclusive: 10.4%"}, {"smiles": "Cc1ccc2oc(=O)c3cc(C(=O)N4CCN(C(=O)c5ccco5)CC4)sc3c2c1", "activity change, negative = inhibition": "inconclusive: -1.22%"}, {"smiles": "O=C(OCc1ccc2c(c1)OCO2)c1cccc(S(=O)(=O)N2CCCCC2)c1", "activity change, negative = inhibition": "inconclusive: 1.3%"}, {"smiles": "Oc1ccc(Br)cc1/C=N/Nc1ncc(-c2ccccc2)cn1", "activity change, negative = inhibition": "inconclusive: -4.91%"}, {"smiles": "COc1ccc(CC(=O)NCc2ccc3c(c2)cc(C)n3C)cc1", "activity change, negative = inhibition": "inconclusive: 2.32%"}, {"smiles": "OC(CNc1ncnc2sccc12)c1ccccc1", "note": "(configuration not stated)", "Potency": "inconclusive: 20 µM [falling, partial curve]"}, {"smiles": "COc1ccc(OC)c(/C=C/C(=O)N2CCCc3ccccc32)c1", "activity change, negative = inhibition": "inconclusive: -14.9%"}, {"smiles": "COc1ccc(/C=N/NC(=O)c2cccc(Br)c2)cc1COc1ccccn1", "activity change, negative = inhibition": "inconclusive: -17.9%"}, {"smiles": "O=C(NCCc1ccc(Cl)cc1)c1ccc(CS(=O)(=O)Cc2ccc(F)cc2)o1", "activity change, negative = inhibition": "inconclusive: 0.157%"}, {"smiles": "Cc1cccc2c(N=NC(=O)c3ccc(NS(=O)(=O)c4cccs4)cc3)c(O)[nH]c12", "activity change, negative = inhibition": "inactive: -0.425%"}, {"smiles": "O=C1CCCC2=C1C(c1ccccc1)NC(=S)N2", "note": "(configuration not stated)", "activity change, negative = inhibition": "inconclusive: 3.76%"}, {"smiles": "O=C(NN1C(=O)NC2(CCCCC2)C1=O)c1cc(F)cc(F)c1", "activity change, negative = inhibition": "inconclusive: 3.35%"}, {"smiles": "Cc1ccc(-n2c(-c3cn(C)nc3C)n[nH]c2=S)cc1", "Potency": "inconclusive: 35.5 µM [rising, partial curve, poor fit]"}, {"smiles": "COCCN(CCOC)c1ncnc2c1cnn2-c1ccc(Cl)cc1", "activity change, negative = inhibition": "inconclusive: -0.951%"}, {"smiles": "COc1ccc(S(=O)(=O)NCc2ccccn2)cc1Cl", "activity change, negative = inhibition": "inconclusive: 9.44%"}, {"smiles": "Cc1cc(NC(=O)c2cc(-c3ccncc3)nc3c(C)cccc23)no1", "activity change, negative = inhibition": "inactive: 1.96%"}, {"smiles": "O=c1c2ccccc2nc(COc2ccccc2)n1/N=C/c1ccc(O)cc1O", "Potency": "inconclusive: 11.2 µM [falling, partial curve]"}, {"smiles": "CN(C)c1ccc(C(=O)OCC(=O)NC2CCCCC2)cc1", "activity change, negative = inhibition": "inconclusive: 10.9%"}, {"smiles": "N#Cc1cccc(C(=O)OCC(=O)N2CCCc3ccccc32)c1", "Potency": "inconclusive: 29.1 µM [falling, single point]"}, {"smiles": "CSc1ccccc1OCc1cc(C(=O)N(C)C(C)c2nc(C)cs2)no1", "note": "(configuration not stated)", "activity change, negative = inhibition": "inconclusive: -29.9%"}]}]}
